Source: PubChem BioAssay AID743454 (Peter MacCallum Cancer Centre, 2014)
Assay: 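Search for knock-downs that restore vorinostat killing in resistant colon cancer cells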 (primary screen). Cell system: human HCT116-VR colon cancer cells, selected for vorinostat resistance. Reagent: siRNA pool against human genes, 40 nM siRNA pool. Duration: vorinostat for 24 h, read-out about 72 h after transfection. Conditions: vorinostat at 2.5 µM final. Detection: 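Two measures, CellTiter-Fluor viability and luminescent caspase 3/7 activity, each as fold change against same-plate mock wells, mean of duplicates, then screen-wide robust z-score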. Reading the numbers: viability robust z-score: higher = more viable cells than screen typical; caspase robust z-score: higher = more caspase 3/7 activity than screen typical. Hit rule: 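Hits are knock-downs in viability class RV1/RV2 or caspase class CA1/CA2, excluding ones that killed cells in the no-drug cell-count arm; hits then retested with single siRNAs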.
The deposit covers about 18,000 reagents; this is an unselected part. Of all reagents, 450 (2.5%) are marked active. 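Single biological run; no consistent viability z cut-off exists, so the class columns, not z-scores, define the calls.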 Unmarked entries are inactive.

target gene	viability hit class	caspase hit class	viability robust z-score	caspase robust z-score
PPP1R3D (protein phosphatase 1 regulatory subunit 3D)	no change	no change	-0.54	0.46
NEFH (neurofilament heavy chain)	no change	no change	-0.21	-0.52
ANKRD50 (ankyrin repeat domain 50)	no change	no change	-0.7	5
INHBE (inhibin subunit beta E)	no change	no change	-0.68	0.6
MRPL49 (mitochondrial ribosomal protein L49)	no change	no change	-0.79	-0.71
APPL2	no change	no change	-0.46	-0.24
KRTAP5-11 (keratin associated protein 5-11)	no change	no change	0	-0.81
ZNF782 (zinc finger protein 782)	no change	no change	1.4	-0.02
DUSP3 (dual specificity phosphatase 3)	no change	no change	1.58	2.46
GTPBP2 (GTP binding protein 2)	no change	no change	0.96	0.78
BRD2 (bromodomain containing 2)	no change	no change	-0.66	3.16
CANX (calnexin)	no change	no change	-2.02	-0.14
SLC25A37	no change	no change	-1.46	0.68
KCNK18 (potassium two pore domain channel subfamily K member 18)	no change	no change	-0.7	-0.38
ZNF598 (zinc finger protein 598, E3 ubiquitin ligase)	no change	no change	0.29	0.06
WDR31 (WD repeat domain 31)	no change	no change	-0.48	-0.78
STAG3L2 (STAG3 cohesin complex component like 2 (pseudogene))	no change	no change	0.46	-0.82
BST1 (bone marrow stromal cell antigen 1)	no change	no change	-0.88	1.98
RHOC (ras homolog family member C)	no change	no change	-0.76	0.06
NDUFS5 (NADH:ubiquinone oxidoreductase subunit S5)	no change	no change	0.2	-0.43
SPMIP6 (sperm microtubule inner protein 6)	no change	no change	-0.15	-0.15
PTMA (prothymosin alpha)	no change	no change	-2.46	2.29
SMAD7 (SMAD family member 7)	no change	no change	1.1	-0.73
UST (uronyl 2-sulfotransferase)	no change	no change	-0.16	0.36
NDRG3 (NDRG family member 3)	no change	no change	1.36	-0.54
CABLES1 (Cdk5 and Abl enzyme substrate 1)	no change	no change	-0.38	-0.96
METTL27 (methyltransferase like 27)	no change	no change	0.14	-1.28
NREP (neuronal regeneration related protein)	no change	no change	0.2	2.87
IMPG1 (interphotoreceptor matrix proteoglycan 1)	no change	no change	-2.85	0.27
IFT20 (intraflagellar transport 20)	no change	no change	0	-0.22
RPA4 (replication protein A4)	no change	no change	1.04	-0.82
HSD17B10 (hydroxysteroid 17-beta dehydrogenase 10)	no change	no change	-0.36	1.38
EXOSC9 (exosome component 9)	no change	no change	-1.75	-1.19
CFAP54 (cilia and flagella associated protein 54)	no change	no change	1.64	-0.32
SAMD5 (sterile alpha motif domain containing 5)	no change	no change	1.62	0.39
COL6A2 (collagen type VI alpha 2 chain)	no change	no change	-0.46	4.09
KLRA1P (killer cell lectin like receptor A1, pseudogene)	no change	no change	0.16	-0.48
IGIP (IgA inducing protein)	no change	no change	0.55	-0.3
MGA (MAX dimerization protein MGA)	RV2 (reduced viability) (active)	no change	-3.12	-0.84
VOPP1 (VOPP1 WW domain binding protein)	no change	no change	1.11	1.34
ULK3 (unc-51 like kinase 3)	no change	no change	0.9	-0.16
RPS6KA4 (ribosomal protein S6 kinase A4)	no change	no change	-0.39	2.18
RTF2 (replication termination factor 2)	no change	no change	1.17	0.07
MAL2 (mal, T cell differentiation protein 2)	no change	no change	0.96	0.2
PPM1M (protein phosphatase, Mg2+/Mn2+ dependent 1M)	no change	no change	-0.83	-0.27
IZUMO1 (izumo sperm-oocyte fusion 1)	no change	no change	-0.66	-0.11
FFAR3 (free fatty acid receptor 3)	no change	no change	-2.87	3.38
CXCR6 (C-X-C motif chemokine receptor 6)	no change	no change	0.54	-0.14

Entries listed so far whose gene name begins with K or k:
target gene	viability hit class	caspase hit class	viability robust z-score	caspase robust z-score
KRTAP5-11 (keratin associated protein 5-11)	no change	no change	0	-0.81
KCNK18 (potassium two pore domain channel subfamily K member 18)	no change	no change	-0.7	-0.38
KLRA1P (killer cell lectin like receptor A1, pseudogene)	no change	no change	0.16	-0.48

The list goes on:
target gene	viability hit class	caspase hit class	viability robust z-score	caspase robust z-score
CCER1 (coiled-coil glutamate rich protein 1)	no change	no change	0.29	-0.62
RASL11B (RAS like family 11 member B)	no change	no change	-0.5	1.64
FCN2 (ficolin 2)	no change	no change	0.68	0.98
FTH1 (ferritin heavy chain 1)	no change	no change	1.92	1.28
SNAP47 (synaptosome associated protein 47)	no change	no change	-0.82	-0.42
LPCAT1 (lysophosphatidylcholine acyltransferase 1)	no change	no change	-0.66	-0.25
METTL1 (methyltransferase 1, tRNA methylguanosine)	no change	no change	0.5	1.7
PEX1 (peroxisomal biogenesis factor 1)	no change	no change	0.87	-0.27
CCDC146 (coiled-coil domain containing 146)	no change	no change	0.36	-0.88
GNAZ (G protein subunit alpha z)	no change	no change	0.31	1.12
IFT140 (intraflagellar transport 140)	no change	no change	0.76	-0.87
VPS37D (VPS37D subunit of ESCRT-I)	no change	no change	-0.84	-0.03
ATG14 (autophagy related 14)	no change	no change	1.12	-0.53
TAS2R7 (taste 2 receptor member 7)	no change	no change	-0.11	-0.71
ARHGAP31 (Rho GTPase activating protein 31)	no change	no change	1.45	-0.64
LRRC37A2 (leucine rich repeat containing 37 member A2)	no change	no change	0.69	0.84
CCDC144BP (coiled-coil domain containing 144B, pseudogene)	no change	no change	-0.02	-1.08
ZFHX2 (zinc finger homeobox 2)	no change	no change	0.36	-0.74
SGTB	no change	no change	0.68	-0.68
RRN3 (RNA polymerase I transcription factor RRN3)	no change	no change	-2.72	0.68
TESK1 (testis associated actin remodelling kinase 1)	no change	no change	-1.19	3.49
LIPK (lipase family member K)	no change	no change	-0.18	-0.12
BTN2A1 (butyrophilin subfamily 2 member A1)	no change	no change	-0.79	0.3
DGCR6L (DiGeorge syndrome critical region gene 6 like)	no change	no change	1.28	1.12
IVNS1ABP (influenza virus NS1A binding protein)	no change	no change	-0.96	1.54
